Laboratory results taken from US5385888A (The Regents of the University of California, priority 1993, dated 1995).
Some peptides are written in HELM: one residue between dots, names in brackets for other building blocks, links after the first $.

Experiment: peptide made by a vendor
Conditions: whole synthesis, 214 and 278 nm

PEPTIDE1{E.R.E.T.Q.I.A.K.G.N.E.Q.S.F.R.V.D.L.R.T.L.L.R.Y.Y}$$$$V2.0
final HPLC purity: better than 97%
